{"source": "the supplement of paper PMC8728848", "test_in_all_cases": "glycan array binding signal (z-score within array); higher = stronger binding", "settings_in_all_cases": "glycan notation: IUPAC condensed, linker removed", "key": {"[1]": {"target": "GlcNAc(b1-3)Gal(b1-4)GlcNAc(b1-3)Gal(b1-4)GlcNAc(b1-3)GalNAc", "outline": "(§1)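 Columns mapping to the same glycan were averaged after glycan names were converted to IUPAC-condensed notation. The data come from 3228 arrays in the Consortium for Functional Glycomics database, limited to those with an available protein sequence. Binding is reported as a within-array Z-score averaged across arrays of one protein sequence and across linkers.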"}, "[2]": {"target": "GlcNAc(b1-3)Gal(b1-4)GlcNAc(b1-3)GalNAc", "outline": "as §1"}, "[3]": {"target": "GlcNAc(b1-3)Gal(b1-4)GlcNAc(b1-3)[GlcNAc(b1-3)Gal(b1-4)GlcNAc(b1-3)]GalNAc", "outline": "as §1"}, "[4]": {"target": "GlcNAc(b1-3)Gal(b1-4)GlcNAc(b1-6)[Gal(b1-3)]GalNAc", "outline": "as §1"}, "[5]": {"target": "GlcNAc(b1-3)Gal(b1-4)GlcNAc(b1-6)[GlcNAc(b1-3)Gal(b1-3)]GalNAc", "outline": "as §1"}, "[6]": {"target": "GlcNAc(b1-3)Gal(b1-4)GlcNAc(b1-6)[GlcNAc(b1-3)]Gal(b1-4)GlcNAc", "outline": "as §1"}, "[7]": {"target": "GlcNAc(b1-3)GalNAc", "outline": "as §1"}, "[8]": {"target": "GlcNAc(b1-3)Man", "outline": "as §1"}, "[9]": {"target": "GlcNAc(b1-3)[GlcNAc(b1-4)][GlcNAc(b1-6)]GlcNAc", "outline": "as §1"}, "[10]": {"target": "GlcNAc(b1-3)[GlcNAc(b1-6)]Gal(b1-4)GlcNAc", "outline": "as §1"}, "[11]": {"target": "GlcNAc(b1-3)[GlcNAc(b1-6)]GalNAc", "outline": "as §1"}, "[12]": {"target": "GlcNAc(b1-4)Gal(b1-4)GlcNAc", "outline": "as §1"}, "[13]": {"target": "GlcNAc(b1-4)GlcNAc", "outline": "as §1"}, "[14]": {"target": "GlcNAc(b1-4)GlcNAc(b1-4)GlcNAc", "outline": "as §1"}, "[15]": {"target": "GlcNAc(b1-4)GlcNAc(b1-4)GlcNAc(b1-4)GlcNAc(b1-4)GlcNAc", "outline": "as §1"}, "[16]": {"target": "GlcNAc(b1-4)GlcNAc(b1-4)GlcNAc(b1-4)GlcNAc(b1-4)GlcNAc(b1-4)GlcNAc", "outline": "as §1"}, "[17]": {"target": "GlcNAc(b1-4)[GlcNAc(b1-6)]GalNAc", "outline": "as §1"}, "[18]": {"target": "GlcNAc(b1-6)Gal(b1-4)GlcNAc", "outline": "as §1"}, "[19]": {"target": "GlcNAc(b1-6)GalNAc", "outline": "as §1"}, "[20]": {"target": "GlcNAc6S(b1-3)Gal(b1-4)GlcNAc", "outline": "as §1"}, "[21]": {"target": "Kdn(a2-3)Gal(b1-3)GalNAc", "outline": "as §1"}, "[22]": {"target": "Kdn(a2-3)Gal(b1-3)GlcNAc", "outline": "as §1"}, "[23]": {"target": "Kdn(a2-3)Gal(b1-4)Glc", "outline": "as §1"}, "[24]": {"target": "Kdn(a2-3)Gal(b1-4)GlcNAc", "outline": "as §1"}, "[25]": {"target": "Kdn(a2-3)Gal(b1-4)[Fuc(a1-3)]GlcNAc", "outline": "as §1"}, "[26]": {"target": "Kdn(a2-6)Gal(b1-4)GlcNAc", "outline": "as §1"}, "[27]": {"target": "Man(a1-2)Man(a1-2)Man(a1-3)Man", "outline": "as §1"}, "[28]": {"target": "Man(a1-2)Man(a1-2)Man(a1-6)[Man(a1-3)]Man", "outline": "as §1"}, "[29]": {"target": "Man(a1-2)Man(a1-3)Man", "outline": "as §1"}, "[30]": {"target": "Man(a1-2)Man(a1-3)[Man(a1-2)Man(a1-6)]Man", "outline": "as §1"}, "[31]": {"target": "Man(a1-2)Man(a1-3)[Man(a1-2)Man(a1-6)]Man(a1-6)[Man(a1-2)Man(a1-2)Man(a1-3)]Man", "outline": "as §1"}, "[32]": {"target": "Man(a1-2)Man(a1-3)[Man(a1-2)Man(a1-6)]Man(a1-6)[Man(a1-2)Man(a1-2)Man(a1-3)]Man(b1-4)GlcNAc(b1-4)GlcNAc", "outline": "as §1"}, "[33]": {"target": "Man(a1-2)Man(a1-3)[Man(a1-6)]Man(a1-6)[Man(a1-2)Man(a1-3)]Man(b1-4)GlcNAc(b1-4)GlcNAc", "outline": "as §1"}, "[34]": {"target": "Man(a1-2)Man(a1-6)[Man(a1-3)]Man(a1-6)[Man(a1-2)Man(a1-2)Man(a1-3)]Man", "outline": "as §1"}, "[35]": {"target": "Man(a1-2)Man(a1-6)[Man(a1-3)]Man(a1-6)[Man(a1-2)Man(a1-2)Man(a1-3)]Man(b1-4)GlcNAc(b1-4)GlcNAc", "outline": "as §1"}, "[36]": {"target": "Man(a1-3)[Man(a1-6)]Man", "outline": "as §1"}, "[37]": {"target": "Man(a1-3)[Man(a1-6)]Man(a1-6)[Man(a1-2)Man(a1-3)]Man(b1-4)GlcNAc(b1-4)GlcNAc", "outline": "as §1"}, "[38]": {"target": "Man(a1-3)[Man(a1-6)]Man(a1-6)[Man(a1-3)]Man", "outline": "as §1"}, "[39]": {"target": "Man(a1-3)[Man(a1-6)]Man(a1-6)[Man(a1-3)]Man(b1-4)GlcNAc(b1-4)GlcNAc", "outline": "as §1"}, "[40]": {"target": "Man(a1-3)[Man(a1-6)]Man(b1-4)GlcNAc(b1-4)GlcNAc", "outline": "as §1"}, "[41]": {"target": "Man(a1-3)[Man(a1-6)]Man(b1-4)GlcNAc(b1-4)[Fuc(a1-6)]GlcNAc", "outline": "as §1"}, "[42]": {"target": "Man(a1-6)Man", "outline": "as §1"}, "[43]": {"target": "Man(b1-4)GlcNAc", "outline": "as §1"}, "[44]": {"target": "MurNAc(b1-4)GlcNAc", "outline": "as §1"}, "[45]": {"target": "Neu5Ac(a2-3)Gal", "outline": "as §1"}}, "note": "Some of the results follow.", "data": [{"binder": "Langerin K299A/K313A (Homo sapiens), Q9UJ71 (protein) STLNAQIPELKSDLEKASALNTKIRALQGSLENMSKLLKRQNDILQVVSQGWKYFKGNFYYFSLIPKTWYSAEQFCVSRNSHLTSVTSESEQEFLYKTAGGLIYWIGLTKAGMEGDWSWVDDTPFNKVQSARFWIPGEPNNAGNNEHCGNIAAPSLQAWNDAPCDATFLFICKRPYVPSEP", "values": [{"measurement": "glycan array binding signal (z-score)", "setting": "[1]", "value": -0.424}, {"measurement": "glycan array binding signal (z-score)", "setting": "[2]", "value": -0.789}, {"measurement": "glycan array binding signal (z-score)", "setting": "[3]", "value": -0.889}, {"measurement": "glycan array binding signal (z-score)", "setting": "[4]", "value": -0.731}, {"measurement": "glycan array binding signal (z-score)", "setting": "[5]", "value": -0.82}, {"measurement": "glycan array binding signal (z-score)", "setting": "[6]", "value": -1.35}, {"measurement": "glycan array binding signal (z-score)", "setting": "[7]", "value": -0.334}, {"measurement": "glycan array binding signal (z-score)", "setting": "[8]", "value": -0.284}, {"measurement": "glycan array binding signal (z-score)", "setting": "[9]", "value": -0.759}, {"measurement": "glycan array binding signal (z-score)", "setting": "[10]", "value": -0.688}, {"measurement": "glycan array binding signal (z-score)", "setting": "[11]", "value": 0.112}, {"measurement": "glycan array binding signal (z-score)", "setting": "[12]", "value": -0.886}, {"measurement": "glycan array binding signal (z-score)", "setting": "[13]", "value": -0.55}, {"measurement": "glycan array binding signal (z-score)", "setting": "[14]", "value": -0.589}, {"measurement": "glycan array binding signal (z-score)", "setting": "[15]", "value": 0.378}, {"measurement": "glycan array binding signal (z-score)", "setting": "[16]", "value": -1.14}, {"measurement": "glycan array binding signal (z-score)", "setting": "[17]", "value": -1.13}, {"measurement": "glycan array binding signal (z-score)", "setting": "[18]", "value": -1.18}, {"measurement": "glycan array binding signal (z-score)", "setting": "[19]", "value": -0.107}, {"measurement": "glycan array binding signal (z-score)", "setting": "[20]", "value": 0.155}, {"measurement": "glycan array binding signal (z-score)", "setting": "[21]", "value": 2.07}, {"measurement": "glycan array binding signal (z-score)", "setting": "[22]", "value": -0.288}, {"measurement": "glycan array binding signal (z-score)", "setting": "[23]", "value": 0.422}, {"measurement": "glycan array binding signal (z-score)", "setting": "[24]", "value": 0.831}, {"measurement": "glycan array binding signal (z-score)", "setting": "[25]", "value": 1.44}, {"measurement": "glycan array binding signal (z-score)", "setting": "[26]", "value": 0.407}, {"measurement": "glycan array binding signal (z-score)", "setting": "[27]", "value": 0.605}, {"measurement": "glycan array binding signal (z-score)", "setting": "[28]", "value": -0.059}, {"measurement": "glycan array binding signal (z-score)", "setting": "[29]", "value": -1.07}, {"measurement": "glycan array binding signal (z-score)", "setting": "[30]", "value": -0.254}, {"measurement": "glycan array binding signal (z-score)", "setting": "[31]", "value": -0.4}, {"measurement": "glycan array binding signal (z-score)", "setting": "[32]", "value": -1.1}, {"measurement": "glycan array binding signal (z-score)", "setting": "[33]", "value": -0.565}, {"measurement": "glycan array binding signal (z-score)", "setting": "[34]", "value": 0.338}, {"measurement": "glycan array binding signal (z-score)", "setting": "[35]", "value": 0.2}, {"measurement": "glycan array binding signal (z-score)", "setting": "[36]", "value": -0.537}, {"measurement": "glycan array binding signal (z-score)", "setting": "[37]", "value": -0.191}, {"measurement": "glycan array binding signal (z-score)", "setting": "[38]", "value": 0.251}, {"measurement": "glycan array binding signal (z-score)", "setting": "[39]", "value": -0.582}, {"measurement": "glycan array binding signal (z-score)", "setting": "[40]", "value": -0.611}, {"measurement": "glycan array binding signal (z-score)", "setting": "[41]", "value": 0.391}, {"measurement": "glycan array binding signal (z-score)", "setting": "[42]", "value": -0.627}, {"measurement": "glycan array binding signal (z-score)", "setting": "[43]", "value": -0.283}, {"measurement": "glycan array binding signal (z-score)", "setting": "[44]", "value": -0.05}, {"measurement": "glycan array binding signal (z-score)", "setting": "[45]", "value": -0.735}]}]}
